Drawing on PMC4726432, this text covers binding for one molecule.

No constants are given. Whether binding was seen depends on the method and setting. Binding seen in cells or lysates may run through a third protein. Some results given as binding are weak or reduced against the parent protein; the word gives no strength. Where a sequence is shown, tags or fusion partners need not be part of it.

For this experiment, the target named is T1, Myc-Irx3 (UniProt P81067).
T1 sequence: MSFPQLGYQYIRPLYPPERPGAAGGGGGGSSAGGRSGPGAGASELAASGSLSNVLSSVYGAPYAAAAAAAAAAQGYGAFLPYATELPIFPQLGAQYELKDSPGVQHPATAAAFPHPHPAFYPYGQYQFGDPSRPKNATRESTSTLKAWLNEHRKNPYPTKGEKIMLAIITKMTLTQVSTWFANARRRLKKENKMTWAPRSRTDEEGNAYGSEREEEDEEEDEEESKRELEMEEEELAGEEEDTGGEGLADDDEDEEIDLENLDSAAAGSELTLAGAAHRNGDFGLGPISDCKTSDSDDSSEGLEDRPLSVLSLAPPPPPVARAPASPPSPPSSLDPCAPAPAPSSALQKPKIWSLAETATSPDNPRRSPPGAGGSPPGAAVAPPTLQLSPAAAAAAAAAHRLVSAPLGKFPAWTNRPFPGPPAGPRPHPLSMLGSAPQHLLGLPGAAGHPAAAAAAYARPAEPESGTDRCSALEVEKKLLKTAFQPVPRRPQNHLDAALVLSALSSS
Put plainly: co-IP; COS-7 cells 48 hours after transfection with PCx, Myc-Irx3 and HA-Tbx5 constructs; incubation with the indicated antibodies overnight at 4 °C, protein G-Sepharose beads, immunoblot. On the technique in general: Immunoblotting shows a protein as a band on a membrane.

B1: HA-Tbx5 (protein, UniProt P70326 1-518)
chain: MADTDEGFGLARTPLEPDSKDRSCDSKPESALGAPSKSPSSPQAAFTQQGMEGIKVFLHERELWLKFHEVGTEMIITKAGRRMFPSYKVKVTGLNPKTKYILLMDIVPADDHRYKFADNKWSVTGKAEPAMPGRLYVHPDSPATGAHWMRQLVSFQKLKLTNNHLDPFGHIILNSMHKYQPRLHIVKADENNGFGSKNTAFCTHVFPETAFIAVTSYQNHKITQLKIENNPFAKGFRGSDDLELHRMSRMQSKEYPVVPRSTVRHKVTSNHSPFSSETRALSTSSNLGSQYQCENGVSGPSQDLLPPPNPYPLAQEHSQIYHCTKRKDEECSSTEHPYKKPYMETSPSEEDTFYRSGYPQQQGLSTSYRTESAQRQACMYASSAPPSEPVPSLEDISCNTWPSMPSYSSCTVTTVQPMDRLPYQHFSAHFTSGPLVPRLAGMANHGSPQLGEGMFQHQTSVAHQPVVRQCGPQTGLQSPGGLQPPEFLYTHGVPRTLSPHQYHSVHGVGMVPEWSENS
Turning to B1, the binding result is reported as “binds”.
